Results on four molecules are retold here after patent publication US20210371524A1 (VOR BIOPHARMA, published 2021).

By UniProt entry, the sequences of proteins in these tests, tags left out. Where a name states a change or a piece, a line headed by the entry shows the natural chain unless it says otherwise.
UniProt P08575: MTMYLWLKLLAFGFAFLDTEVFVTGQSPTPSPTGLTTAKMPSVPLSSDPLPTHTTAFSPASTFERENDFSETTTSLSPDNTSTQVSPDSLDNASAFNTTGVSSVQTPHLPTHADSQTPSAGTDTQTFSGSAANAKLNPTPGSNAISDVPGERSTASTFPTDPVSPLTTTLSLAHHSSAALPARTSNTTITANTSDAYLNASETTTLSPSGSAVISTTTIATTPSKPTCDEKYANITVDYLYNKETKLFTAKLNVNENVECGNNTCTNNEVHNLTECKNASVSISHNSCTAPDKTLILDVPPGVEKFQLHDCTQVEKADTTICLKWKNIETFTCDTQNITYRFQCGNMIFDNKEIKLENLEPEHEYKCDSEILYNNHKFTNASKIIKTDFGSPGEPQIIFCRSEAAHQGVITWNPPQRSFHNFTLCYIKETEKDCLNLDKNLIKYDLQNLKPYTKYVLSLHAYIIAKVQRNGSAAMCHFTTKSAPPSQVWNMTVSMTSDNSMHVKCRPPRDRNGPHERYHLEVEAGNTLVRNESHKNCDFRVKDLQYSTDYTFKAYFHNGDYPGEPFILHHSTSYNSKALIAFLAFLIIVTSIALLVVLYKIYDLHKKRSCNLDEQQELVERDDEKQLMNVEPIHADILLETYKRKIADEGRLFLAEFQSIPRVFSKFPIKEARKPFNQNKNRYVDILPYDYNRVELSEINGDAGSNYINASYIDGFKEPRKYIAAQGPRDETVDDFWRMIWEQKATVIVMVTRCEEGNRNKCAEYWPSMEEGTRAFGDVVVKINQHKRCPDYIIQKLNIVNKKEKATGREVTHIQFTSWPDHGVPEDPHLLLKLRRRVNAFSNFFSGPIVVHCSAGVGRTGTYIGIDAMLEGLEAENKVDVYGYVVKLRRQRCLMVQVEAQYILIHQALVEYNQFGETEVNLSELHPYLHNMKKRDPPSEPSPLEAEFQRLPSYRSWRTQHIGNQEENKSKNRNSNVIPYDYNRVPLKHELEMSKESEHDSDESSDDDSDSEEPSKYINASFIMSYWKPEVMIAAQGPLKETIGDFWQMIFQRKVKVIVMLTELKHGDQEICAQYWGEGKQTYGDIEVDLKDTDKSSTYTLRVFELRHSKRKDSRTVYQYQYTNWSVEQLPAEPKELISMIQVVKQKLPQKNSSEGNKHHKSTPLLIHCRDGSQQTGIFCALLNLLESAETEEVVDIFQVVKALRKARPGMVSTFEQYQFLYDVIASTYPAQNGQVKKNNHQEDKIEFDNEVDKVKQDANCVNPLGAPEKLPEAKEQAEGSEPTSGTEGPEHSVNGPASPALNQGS

Substitutions are numbered along the chain they refer to. Results are given in words; binding and its absence hold for the method and conditions named. Some entries that bind do so weakly or less than the wild type.

The target in assay [1] is Human CD45RABC Antigen (Fragment of Human CD45RABC Isoform) (human) (UniProt P08575). Kind of assay: Octet binding experiments. Background: BLI is a label-free optical method that tracks binding on a fibre tip over time.
Assay [2] has the same target. Kind of assay: statement in the epitope mapping example.

B1: AbB (rat anti-human CD45 monoclonal clone, before chimerisation) (antibody, V domains shown)
VH: EVQLVESGGDLVQPGRSLKLSCIASGFTFTNFWMTWIRQVSGKGLEWVASISSSGGSIYYPDSVKDRFTISRDNAKNTLYLQMNSLRSEDTATYYCVKLHYYSGGGDAWGQGTSVTVSS
VL: DIQMTQSPSFLSASVGDRVTINCKASQNINKYLDWYQQKHGEAPKLLIHYTNNLHTGIPSRFSGSGSGTDYTLTISSLQPEDVATYFCLQHSSRWTFGGGTKLELK
Regarding B1, in assay [1], the binding entry is on record as “binds”.

B2: AbC (rat anti-human CD45 monoclonal clone, before chimerisation) (antibody, V domains shown)
VH: B1 VH with I23V, T30N, F32Y, S41P, Y80F, V97A, K98R, H100Y
VL: B1 VL with N22I, N28D, H40L, H49Y, Y50N, S92I
On to B2, for which the binding entry in assay [1] is “binds”.

B3: AbA chimera (chimeric Antibody A, human IgG1) (antibody, V domains shown)
VH: EVQLVESGGDRVQPGRSLTLSCVTSGFTFNNYWMTWIRQVPGKGLEWVASISSSGGSIYYPDSVKGRFTISRDNAKNTLYLQMNSLRSEDTATYYCARDERWAGAMDAWGQGTSVTVSS
VL: DIQMTQSPPVLSASVGDRVTLSCKASQNINKNLDWYQQKHGEAPKLLIYETNNLQTGIPSRFSGSGSGTDYTLTISSLQPEDVATYYCYQHNSRFTFGSGTKLEIK
notes: also called chimeric AbA
Turning to B3, the binding entry in assay [2] is reported as “binds”.

B4: AbA (rat anti-human CD45 monoclonal clone, before chimerisation) (antibody, V domains shown)
VH: B3 VH
VL: B3 VL
Consider B4, for which the binding result in assay [1] is “binds”.
